One substance from article PMC13189625 can be followed below.

The chains behind the UniProt entries cited, without tags or fusion partners. Where a name states a change or a piece, a line headed by the entry shows the natural chain unless it says otherwise.
UniProt O54851: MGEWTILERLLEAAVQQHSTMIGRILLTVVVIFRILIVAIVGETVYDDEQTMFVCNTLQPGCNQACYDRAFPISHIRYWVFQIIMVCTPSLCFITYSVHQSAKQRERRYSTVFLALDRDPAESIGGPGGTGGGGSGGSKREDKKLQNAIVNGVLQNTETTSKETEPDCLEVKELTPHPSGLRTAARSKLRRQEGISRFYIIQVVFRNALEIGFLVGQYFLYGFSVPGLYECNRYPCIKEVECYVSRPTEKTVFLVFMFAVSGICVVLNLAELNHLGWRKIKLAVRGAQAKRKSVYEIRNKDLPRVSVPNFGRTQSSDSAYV

These are yes or no findings as the source states them, for the method shown. In cells and extracts the contact can be indirect. Binding can be weak; no strength is given. Sequences can lack the tags named with a protein.

For this assay, the target named is T1, FLAG-Sj2bp (UniProt P57105).
T1 sequence: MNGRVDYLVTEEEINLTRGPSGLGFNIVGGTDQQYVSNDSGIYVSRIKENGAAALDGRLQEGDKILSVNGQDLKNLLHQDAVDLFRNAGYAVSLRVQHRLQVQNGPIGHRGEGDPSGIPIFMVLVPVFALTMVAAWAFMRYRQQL
The assay is described as follows: co-IP; co-transfected HEK293T lysate cleared at 20,000 × g; DYKDDDDK Fab-Trap agarose overnight, FLAG-Sj2bp as bait; Western blot. Background: Immunoblotting shows a protein as a band on a membrane.

On to “Cx36 with deletion of amino acids 313–319 (from UniProt O54851)”, for which the binding result is “binds”.
